Patent US9902766B2, “Antibodies to endoplasmin and their use” (University of Pittsburgh—Of The Commonwealth System of …, priority 2010, dated 2018)
Some results were stated once for a whole list of compounds, not compound by compound.

System: MIAPaCa-2 cells
Experiment: apoptosis by Annexin V/PI flow cytometry
Format: cell-based, human
Conditions: MIAPaCa-2 starved 3 hrs, mAb W9 10 μg/ml, cyclopamine 20 μM, 5-FU 10 μM, 24 hrs

CC1=C2C[C@H]3[C@@H](CC=C4C[C@@H](O)CC[C@@]43C)[C@@H]2CC[C@]12O[C@@H]1C[C@H](C)CN[C@H]1[C@H]2C [cyclopamine, reference compound]
cells in which apoptosis was induced: less than 35%
